Data as given in PubChem BioAssay AID1159584 (Peter MacCallum Cancer Centre, 2016).
Here is one part, drawn at random, of about 18,000 reagents. Reagents against one gene are numbered here. Not all columns of the deposit are shown. Not given: the amount of reagent, the time to read-out.

Screen: 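Genes that CDH1-null MCF10A cells selectively depend on to survive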 (primary screen)
System: human MCF10A breast epithelial cells, parental and CDH1-null
Knock-down reagent: siRNA against human genes
Measurement: 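Cell viability by CellTiter-Glo ATP luminescence, each line scaled to the mean of mock wells across plates, then CDH1-null over parental ratio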
Direction: CDH1-null / parental viability ratio: higher = CDH1-null cells survive relatively better than parental; CDH1-null viability vs mock: higher = more viable CDH1-null cells
Units: CDH1-null viability vs mock in fraction of mock

STEAP1: CDH1-null / parental viability ratio = 1.17; CDH1-null viability vs mock = 0.89
RNF7: CDH1-null / parental viability ratio = 1.02; CDH1-null viability vs mock = 0.96
PLEKHG7 #1: CDH1-null / parental viability ratio = 0.97; CDH1-null viability vs mock = 0.76
PLEKHG7 #2: CDH1-null / parental viability ratio = 1.35; CDH1-null viability vs mock = 1.32
ACADM: CDH1-null / parental viability ratio = 1.01; CDH1-null viability vs mock = 0.96
CFAP45: CDH1-null / parental viability ratio = 0.88; CDH1-null viability vs mock = 0.6
TERT: CDH1-null / parental viability ratio = 0.96; CDH1-null viability vs mock = 0.9
IL36G: CDH1-null / parental viability ratio = 1.23; CDH1-null viability vs mock = 1.06
NOTUM: CDH1-null / parental viability ratio = 0.85; CDH1-null viability vs mock = 0.9
RGL3: CDH1-null / parental viability ratio = 0.96; CDH1-null viability vs mock = 0.45
MRPL54: CDH1-null / parental viability ratio = 1.17; CDH1-null viability vs mock = 1.12
ATP6AP1L: CDH1-null / parental viability ratio = 1.34; CDH1-null viability vs mock = 0.91
FKRP: CDH1-null / parental viability ratio = 0.89; CDH1-null viability vs mock = 0.55
TTPA: CDH1-null / parental viability ratio = 1.01; CDH1-null viability vs mock = 0.87
WFDC10A: CDH1-null / parental viability ratio = 1.37; CDH1-null viability vs mock = 0.78
RARB: CDH1-null / parental viability ratio = 0.74; CDH1-null viability vs mock = 0.61
CLU: CDH1-null / parental viability ratio = 1.3; CDH1-null viability vs mock = 0.78
CDH16: CDH1-null / parental viability ratio = 0.86; CDH1-null viability vs mock = 0.57
CST8: CDH1-null / parental viability ratio = 0.89; CDH1-null viability vs mock = 0.94
PDHA1: CDH1-null / parental viability ratio = 1.15; CDH1-null viability vs mock = 1.08
MSRB1: CDH1-null / parental viability ratio = 1.11; CDH1-null viability vs mock = 0.62
TSACC: CDH1-null / parental viability ratio = 1.07; CDH1-null viability vs mock = 0.64
FBXO30: CDH1-null / parental viability ratio = 0.92; CDH1-null viability vs mock = 0.76
CDH8: CDH1-null / parental viability ratio = 0.97; CDH1-null viability vs mock = 0.64
CLCF1: CDH1-null / parental viability ratio = 1; CDH1-null viability vs mock = 0.78
NBPF10: CDH1-null / parental viability ratio = 1.32; CDH1-null viability vs mock = 1
WASHC2A: CDH1-null / parental viability ratio = 0.98; CDH1-null viability vs mock = 0.84
CCDC74A: CDH1-null / parental viability ratio = 0.93; CDH1-null viability vs mock = 0.64
WNT3A: CDH1-null / parental viability ratio = 1.19; CDH1-null viability vs mock = 1.26
CTRL: CDH1-null / parental viability ratio = 1.12; CDH1-null viability vs mock = 0.94
XRCC4: CDH1-null / parental viability ratio = 1.1; CDH1-null viability vs mock = 0.92
CYP4F12: CDH1-null / parental viability ratio = 0.95; CDH1-null viability vs mock = 0.98
FXYD6: CDH1-null / parental viability ratio = 0.92; CDH1-null viability vs mock = 0.73
ENTPD7: CDH1-null / parental viability ratio = 0.8; CDH1-null viability vs mock = 0.77
MTCH2: CDH1-null / parental viability ratio = 1.26; CDH1-null viability vs mock = 0.44
CELA1: CDH1-null / parental viability ratio = 1.24; CDH1-null viability vs mock = 0.83
COX17: CDH1-null / parental viability ratio = 0.73; CDH1-null viability vs mock = 0.58
KRT15: CDH1-null / parental viability ratio = 1.24; CDH1-null viability vs mock = 1.12
SERPINB10: CDH1-null / parental viability ratio = 1.26; CDH1-null viability vs mock = 0.86
RPL41: CDH1-null / parental viability ratio = 1.16; CDH1-null viability vs mock = 0.72
ZNF317: CDH1-null / parental viability ratio = 0.87; CDH1-null viability vs mock = 0.45
TRIM60: CDH1-null / parental viability ratio = 0.96; CDH1-null viability vs mock = 0.98
LAT2: CDH1-null / parental viability ratio = 0.77; CDH1-null viability vs mock = 0.4
OR8B12: CDH1-null / parental viability ratio = 0.96; CDH1-null viability vs mock = 0.77
ATMIN: CDH1-null / parental viability ratio = 0.8; CDH1-null viability vs mock = 0.7

Part of the list above, showing only “CDH1-null viability vs mock”.
IL36G: 1.06
NOTUM: 0.9
RGL3: 0.45
MRPL54: 1.12
